Measured values: patent US20130034559A1
These are yes or no findings as the source states them, for the method shown. Some results given as binding are weak or reduced against the parent protein; the word gives no strength.

Chains of the proteins cited; added tags and fusions are not shown. Lines headed by an entry give the natural chain unless they say otherwise; changes in a name come on top. A line that says so, or that is headed by a name, gives the form on record, which may keep a tag or linker.
B7H1_M115D (Q9NZQ7, form named): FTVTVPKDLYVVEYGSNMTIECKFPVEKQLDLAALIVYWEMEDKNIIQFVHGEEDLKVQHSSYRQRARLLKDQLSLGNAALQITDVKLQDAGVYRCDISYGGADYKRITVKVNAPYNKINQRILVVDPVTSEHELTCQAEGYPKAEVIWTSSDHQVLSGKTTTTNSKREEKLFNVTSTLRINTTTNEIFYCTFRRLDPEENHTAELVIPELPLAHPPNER

Target: 2.7A4OPT
Test: HTRF competition assay, told in the text

binding: binds
Substance: B7H1_M115D (from UniProt Q9NZQ7 19-238) (ligand)
